# Paper PMC6925144, “A prospective compound screening contest identified broader inhibitors for Sirtuin 1” (Scientific Reports, 2019)
# By UniProt entry, the sequences of proteins in these tests, tags left out. Residues count along the entry.
# UniProt Q96EB6, 2-747 limits assumed: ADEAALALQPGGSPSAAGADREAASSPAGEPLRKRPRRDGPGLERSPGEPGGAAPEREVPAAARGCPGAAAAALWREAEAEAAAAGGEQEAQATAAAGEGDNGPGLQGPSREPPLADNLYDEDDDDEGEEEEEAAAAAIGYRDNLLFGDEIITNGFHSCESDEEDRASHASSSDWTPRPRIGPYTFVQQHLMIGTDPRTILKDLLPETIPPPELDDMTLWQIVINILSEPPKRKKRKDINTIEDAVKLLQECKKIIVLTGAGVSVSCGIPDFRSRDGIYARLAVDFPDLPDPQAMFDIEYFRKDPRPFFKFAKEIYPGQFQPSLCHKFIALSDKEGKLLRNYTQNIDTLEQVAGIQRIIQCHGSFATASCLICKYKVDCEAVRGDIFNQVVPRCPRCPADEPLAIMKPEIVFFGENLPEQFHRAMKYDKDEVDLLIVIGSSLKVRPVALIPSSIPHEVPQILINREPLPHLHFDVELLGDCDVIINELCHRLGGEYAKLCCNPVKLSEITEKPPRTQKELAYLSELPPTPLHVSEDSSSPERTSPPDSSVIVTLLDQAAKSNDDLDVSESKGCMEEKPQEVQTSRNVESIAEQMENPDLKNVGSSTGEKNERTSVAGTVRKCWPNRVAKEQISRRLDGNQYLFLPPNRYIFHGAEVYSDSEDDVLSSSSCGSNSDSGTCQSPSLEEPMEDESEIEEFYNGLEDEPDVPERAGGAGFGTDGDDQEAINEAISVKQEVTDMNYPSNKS
# The full ranking holds about 3,200 compounds; the median of “TSA(without NAD+) / Primary screening (TSA) / delta Tm (K)” is about -0.07, and the highest 2% start at about 0.37. The list shows a part of the results.
# Target: NAD-dependent deacetylase Sirtuin 1 (human, UniProt Q96EB6)
# Assay: primary screen, delta tm
# Parameters: single well (n = 1)
# Details: 10 µM
# How it was run: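 Thermal shift of Sirtuin 1 measured without NAD+, compound at 10 µM (n = 1); value is ΔTm, with hits defined as ΔTm > 0.45 K or < −1.5 K. Hits retested at 5, 10, 20 µM (n = 4) and counterscreened on bovine carbonic anhydrase and ABL1 SH2 domain.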
row,Structure (SMILES),TSA(without NAD+) / Primary screening (TSA) / delta Tm (K)
1,CCOc1ccc(C2C(C(=O)c3ccc(C)cc3)=C(O)C(=O)N2CCCN2CCOCC2)cc1 (centres unmarked),-0.05
2,NC(=O)c1cccc(CN2CCCC2c2ccsc2)c1 (centres unmarked),-0.08
3,COc1ccc(CCN2CC(C(=O)OCC(=O)NC(Cc3ccccc3)C(C)=O)CC2=O)cc1OC (centres unmarked),-0.33
4,COCC(CN)OC (centres unmarked),-0.13
5,CC(Oc1ccc2ccc(=O)oc2c1)C(=O)N1CCc2ccccc21 (centres unmarked),-0.24
6,NC(=O)C1CCN(C(=O)c2[nH]c3ccc(F)cc3c2Cl)CC1,-0.12
7,COc1ncnc2c1cnn2-c1ccccc1,-0.13
8,NC(=O)c1cnc(Nc2ncnc3oc(-c4ccccc4)cc23)s1,-0.18
9,CNC(=O)CNC(=O)CNC(=O)c1cccs1,-0.07
10,CCn1cc(C(=O)N(C)Cc2ccc(OCc3ccccc3)c(OC)c2)c(=O)c2ccc(C)nc21,-0.02
11,NC(=O)c1c(NC(=O)CSc2nnc(N3CCCC3)n2C2CC2)sc2c1CCC2,-0.17
12,O=C(CSc1nncn1-c1ccccc1)Nc1ccccc1[N+](=O)[O-],-0.13
13,COc1cc2c(N3CCC(c4cc(N)[nH]n4)CC3)ncnc2cc1F,0.06
14,C=CCOc1ccc(C2C(C(=O)c3ccc(OCC)cc3)=C(O)C(=O)N2CCN2CCOCC2)cc1 (centres unmarked),-0.12
15,COc1cc(C2C(C(=O)c3ccco3)=C(O)C(=O)N2CCCN2CCOCC2)cc(OC)c1OC (centres unmarked),-0.12
16,O=C(NCCC12CC3CC(C1)CC(CCNC(=O)c1ccc(S(=O)(=O)N4CCOCC4)cc1)(C3)C2)c1ccc(S(=O)(=O)N2CCOCC2)cc1,0.17
17,Cc1ccc(-c2sc(-c3ccccc3)nc2CC(=O)Nc2nnc(CC(C)C)s2)cc1,-0.15
18,CCOc1ccc(C(NC(=O)c2cc(C(N)=O)cn2C)C(C)C)cc1OCC (centres unmarked),-0.08
19,NCC1CCCC1N (centres unmarked),0.02
20,CN(C)Cc1ccc(C(=O)Nc2cccc(C(=O)NC3CC3)c2)cc1,-0.03
21,Cc1sc2ncnc(N3CCCC(C(N)=O)C3)c2c1C (centres unmarked),-0.13
22,Cn1c(SCC(N)=O)nc2ccccc21,-0.23
23,Cc1c(C(C)C)c(Cl)n2c(nc3ccccc32)c1C#N,-0.02
24,CCOc1cc2c(cc1CNC(=O)NCc1cn(Cc3ccccc3)nc1-c1ccccc1)OC(C)C2 (centres unmarked),-0.07

# Already shown: entries from further up.
row,Structure (SMILES),TSA(without NAD+) / Primary screening (TSA) / delta Tm (K)
18,CCOc1ccc(C(NC(=O)c2cc(C(N)=O)cn2C)C(C)C)cc1OCC (centres unmarked),-0.08
19,NCC1CCCC1N (centres unmarked),0.02
20,CN(C)Cc1ccc(C(=O)Nc2cccc(C(=O)NC3CC3)c2)cc1,-0.03
21,Cc1sc2ncnc(N3CCCC(C(N)=O)C3)c2c1C (centres unmarked),-0.13

# (further entries)

row,Structure (SMILES),TSA(without NAD+) / Primary screening (TSA) / delta Tm (K)
1,O=C(CN1CCN(C(=O)c2ccc(-c3nc4ccccc4s3)o2)CC1)Nc1cccc(F)c1,0.07
2,O=C1NC(=S)N/C1=C/c1ccc(-c2ccc(Cl)cc2)o1,-0.04
3,O=C1NC(=S)NC(=O)C1=CNc1ccc(Br)cc1,0.03
4,COc1ccccc1CNC(=O)CN(C)Cc1ccc(SC)cc1,-0.22
5,NC(=O)c1ccc(COc2ccc3oc4ccccc4c3c2)cc1,0.02
6,O=C1NC(=S)NC(=O)C1=Cc1ccc(-c2ccccc2)o1,-0.33
7,O=C(O)c1ccc2[nH]c(C(F)F)nc2c1,0.15
8,CCC(C)N(C)CCN (centres unmarked),-0.04
9,O=C(CSc1nnc(CC2CCS(=O)(=O)C2)o1)NC1CCCc2ccccc21 (centres unmarked),-0.02
10,NC(=O)c1csc(C(=O)NCCc2cc(F)cc3c2OCOC3)c1,-0.04
11,CCc1cccc2c(C(=O)N3CCN(C4CCCC4O)CC3)c[nH]c12 (centres unmarked),-0.02
12,O=C(COC(=O)C12CC3CC(C1)CC(c1ccccc1)(C3)C2)N1CCN(c2ccccc2)CC1,-0.14
13,c1ccc2[nH]c(-c3nc4c5ccccc5ncn4n3)cc2c1,0.07
14,CN1CCC(NC(=O)c2cnc(N)c(Cl)c2)C1c1ccc(F)cc1 (centres unmarked),-0.03
15,COc1ccc(NC(=O)CCN2C(=O)c3ccc(C)cc3C2=O)cc1OCc1cn2ccccc2n1,-0.15
16,Cc1nc(CSc2nccn2Cc2ccccn2)cs1,-0.05
17,COCCN(C)CCN,-0.14
18,Cc1ccc(C)c(C(=O)CCC(=O)OC(C)C(=O)Nc2ccc(C(N)=O)cc2)c1 (centres unmarked),-0.05
19,O=C1CC2(CCCCC2)CC(=O)C1=CN/N=C1/C(=O)Nc2ccccc21,-0.07
20,CN(C)c1ccc(CNc2ncnc3ccsc23)cn1,0.05
21,CC(C)OCCN,-0.17
22,CN(c1cccc(Cl)c1)S(=O)(=O)c1cccc(C(=O)Nc2ncc(C(N)=O)s2)c1,0.37
23,CCC(C)(C)NC(=O)c1ccc2[nH]c(=O)c(=O)[nH]c2c1,0.05
24,CC1CN(CC(=O)c2ccccc2Cl)CC(C)O1 (centres unmarked),-0.27

row,Structure (SMILES),TSA(without NAD+) / Primary screening (TSA) / delta Tm (K)
1,O=C(N/N=C/c1ccc(O)cc1O)C(=O)N/N=C/c1ccc(O)cc1O,-0.03
2,NC(=O)C1CCCCCC1NC(=O)c1ccncc1Cl (centres unmarked),-0.18
3,COc1ccc(/C=C2\Oc3cc(OC)ccc3C2=O)c(OC)c1,-0.08
4,CC(=O)Nc1ccc(-c2csc(NC(=O)Cn3[nH]c(=O)ccc3=O)n2)cc1,-0.18
5,CN(C(=O)c1cc(O)nc2ccccc12)c1ccc2ccccc2c1,-0.03
6,O=C(CN1CCN(C(=O)c2cc(-c3ccncc3)nc3ccccc23)CC1)Nc1ccccc1Cl,-0.18
7,Cc1cc(C=C2C(=O)NC(=S)NC2=O)c(C)n1-c1ccccc1Cl,-0.67
8,NC(=O)c1ccc(NC(=O)COC(=O)/C=C/c2ccc3c(c2)OCO3)cc1,-0.13
9,Cc1ccccc1C1CN(C(=O)C2CCc3n[n-]nc3C2)CCO1 (centres unmarked),-0.13
10,CC(NC(=O)COC(=O)CCCN1C(=O)c2cccc3cccc(c23)C1=O)C12CC3CC(CC(C3)C1)C2 (centres unmarked),-0.34
11,OCCCCN1CCN(c2ncnc3cc(Cl)ccc23)CC1,0.08
12,CC1CCc2c(sc3ncnc(N4CCN(Cc5csc(-c6ccco6)n5)CC4)c23)C1 (centres unmarked),-0.12
13,O=C(Cn1cnc2sc3c(c2c1=O)CCC3)N1CCc2ccccc2C1,-0.12
14,Cn1cc(C2CCN(c3ncnc4ccccc34)CC2)cn1,-0.11
15,COC(=O)CCCNC(=O)c1cc(-c2ccco2)nc2c(C(N)=O)ncn12,-0.07
16,Nn1c(S)nnc1-c1ccccc1F,-0.23
17,O=C(CCl)c1c(-c2ccc(F)cc2)[nH]c2ccccc12,0.08
18,CCNC(=O)C(C)NC(=O)c1cccc(S(=O)(=O)N(C)c2ccc(C)cc2)c1 (centres unmarked),-0.12
19,CCOc1cccc(C2C(C(=O)c3cc4ccccc4o3)=C(O)C(=O)N2CCCN2CCOCC2)c1 (centres unmarked),-0.01
20,Cc1[nH]c2ccccc2c1CC(=O)Nc1cccc(-c2noc(=O)[nH]2)c1,0.07
21,O=C(Nc1ccccc1)c1ccc(CNC(c2ccccc2)c2ccccc2)cc1,0.12
22,O=C(O)CCCCNC(=O)OCc1ccccc1,-0.15
23,Cc1c(C(=O)O)c(=O)oc2cc(F)ccc12,-0.21
24,NC(=O)c1cccc2c1CCCN2C(=O)CCCn1c(=O)oc2ccccc21,0.02

# Molecules listed so far that contain a COOH group:
row,Structure (SMILES),TSA(without NAD+) / Primary screening (TSA) / delta Tm (K)
7,O=C(O)c1ccc2[nH]c(C(F)F)nc2c1,0.15
22,O=C(O)CCCCNC(=O)OCc1ccccc1,-0.15
23,Cc1c(C(=O)O)c(=O)oc2cc(F)ccc12,-0.21

# Carrying on.

row,Structure (SMILES),TSA(without NAD+) / Primary screening (TSA) / delta Tm (K)
1,COC(=O)C(C(=O)c1ccccc1)=C1Nc2ccccc2N1,-0.12
2,CN(c1ccccc1)S(=O)(=O)c1cccc(NC(=O)c2cc(Cl)nc3ccccc23)c1,0.17
3,COC(=O)c1ccc(C(=O)NNC(=O)Cc2cn3ccsc3n2)cc1,0.35
4,CCCCn1c(N)c(NC)c(=O)[nH]c1=O,-0.28
5,CN(C)C(=O)c1ccc2[nH]c3c(c2c1)CCCCC3,0.17
6,CC(C)Cc1cc(NC(=O)Cc2coc(-c3cccs3)n2)n(C)n1,-0.13
7,O=C(Nc1cccc(C(F)(F)F)c1)c1cccc(NC(=O)c2cc3c(cc2[N+](=O)[O-])OCCO3)c1,0.23
8,COc1cc(CN(C)C(=O)Cc2ccc3c(c2)OCCO3)ccc1OCc1ccccc1,-0.14
9,CCCNC(=O)CNc1ccccc1OC(F)F,-0.18
10,Cc1ccc2[nH]c3c(c2c1)CC(C)(C)CC3,-0.38
11,CC(O)CCCN (centres unmarked),-0.18
12,O=C(COC(=O)C1=COCCO1)NCCc1c[nH]c2ccccc12,-0.22
13,CCCOc1ccc(/C=c2/s/c(=C\C(=O)OCC)n(CC(=O)NCC3CCCO3)c2=O)cc1OCC (centres unmarked),0.06
14,Cc1nn(Cc2ccccc2)c(Cl)c1/C=C/C(=O)OC(C)C(=O)Nc1ncc(Cl)cc1Cl (centres unmarked),0.07
15,COc1ccccc1C1C(C(=O)/C=C/c2ccco2)=C(O)C(=O)N1CCCN1CCOCC1 (centres unmarked),-0.22
16,O=C(O)CC(O)(CC(=O)O)C(=O)O,0.02
17,CCCNC(=O)Nc1ccc(OC)cc1,-0.12
18,NC(=O)C1CCCN(c2ncnc3cc(-c4ccc(Br)cc4)sc23)C1 (centres unmarked),-0.18
19,CC1Cc2ccccc2N1S(N)(=O)=O (centres unmarked),-0.17
20,CC(C)C(O)c1ccccc1NC(=O)c1cc2ccccc2n1C (centres unmarked),-0.13
21,c1ccc(OC2CCN(c3ncnc4c3oc3ccccc34)CC2)nc1,0.25
22,COc1cccc(C(C)NCc2ccc3[nH]c(=O)[nH]c3c2)c1 (centres unmarked),-0.02
23,CCc1cc(CN2CCc3cc(OC)c(OC)cc3C2)c(C)cc1O,-0.23
